# Experimental data published in PMC10079926.
# By UniProt entry, the sequences of proteins in these tests, tags left out. Where a name states a change or a piece, a line headed by the entry shows the natural chain unless it says otherwise. Residues count along the entry.
# UniProt Q5GJ75: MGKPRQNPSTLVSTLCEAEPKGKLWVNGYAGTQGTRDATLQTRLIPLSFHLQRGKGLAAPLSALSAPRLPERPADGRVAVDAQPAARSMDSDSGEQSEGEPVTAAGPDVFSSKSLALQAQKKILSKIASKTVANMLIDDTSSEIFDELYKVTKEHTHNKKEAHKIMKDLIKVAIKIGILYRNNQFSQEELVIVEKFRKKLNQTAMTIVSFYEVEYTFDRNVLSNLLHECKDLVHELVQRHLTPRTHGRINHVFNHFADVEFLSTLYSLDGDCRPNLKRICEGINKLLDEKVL
# UniProt Q9UI09: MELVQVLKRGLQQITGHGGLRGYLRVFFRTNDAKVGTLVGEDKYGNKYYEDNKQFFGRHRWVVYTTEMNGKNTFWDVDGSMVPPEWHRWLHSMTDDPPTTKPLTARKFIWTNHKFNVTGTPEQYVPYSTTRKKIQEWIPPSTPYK
# UniProt O75947: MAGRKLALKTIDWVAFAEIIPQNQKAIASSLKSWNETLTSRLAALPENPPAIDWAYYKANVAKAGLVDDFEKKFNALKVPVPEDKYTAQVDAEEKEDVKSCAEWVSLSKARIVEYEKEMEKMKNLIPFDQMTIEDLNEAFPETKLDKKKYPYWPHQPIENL
# UniProt P19404, residues 33-249: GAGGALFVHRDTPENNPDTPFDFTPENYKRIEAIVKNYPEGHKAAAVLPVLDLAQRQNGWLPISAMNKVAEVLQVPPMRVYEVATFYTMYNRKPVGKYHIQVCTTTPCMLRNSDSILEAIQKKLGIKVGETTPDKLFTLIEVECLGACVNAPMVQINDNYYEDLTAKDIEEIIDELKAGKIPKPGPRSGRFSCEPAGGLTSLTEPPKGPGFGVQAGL
# UniProt O00217, residues 35-210: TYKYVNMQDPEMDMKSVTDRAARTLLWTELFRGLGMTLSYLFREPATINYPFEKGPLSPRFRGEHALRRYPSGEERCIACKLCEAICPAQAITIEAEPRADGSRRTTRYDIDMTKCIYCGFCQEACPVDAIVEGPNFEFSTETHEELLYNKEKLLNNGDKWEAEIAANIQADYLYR
# Target: TIPE3-HA (full-length TIPE3, TNFAIP8L3) (UniProt Q5GJ75)
# Assay: affinity purification with mass spectrometry; co-IP/MS: proteins immunoprecipitated by HA from extract of Cal33 cells with TIPE3-HA; IP lysis buffer, antibody overnight at 4 °C, protein A/G Sepharose beads; mass spectrometry
row,binding,Substance
1,binds,NDUFA12 (Complex I) (from UniProt Q9UI09 1-145)
2,binds,ATP5H (Complex V) (from UniProt O75947 1-161)
3,binds,NDUFV2 (Complex I) (from UniProt P19404 33-249)
4,binds,NDUFS8 (Complex I) (from UniProt O00217 35-210)

# No constants are given. Whether binding was seen depends on the method and setting. Binding seen in cells or lysates may run through a third protein. These calls come from enrichment with a bait or labelling near it, and not all partners need be listed.
